Some of these results come from one statement about several compounds together.
System: T. fuscum
Assay: Field trapping of fuscumol enantiomers, APT Intercept traps, Bialowieza, Poland, 2007
Assay type: in vivo, Tetropium fuscum
Settings: without the host volatile lures
From the text: FIG. 4. Mean catch of a. Tetropium fuscum and b. T. castaneum in APT INTERCEPT TRAPS™ (insect traps) baited with synthetic fuscumol (pure S—, pure R—, or racemic) alone and combined with host volatile lures (SB=spruce blend, a blend of monoterpenes in an ultra high release rate (UHR) lure; E=ethanol in an UHR lure) in Bialowieza, Poland in 2007.
Trapping experiments were run in 2007 in Halifax, NS, and Bialowieża, Poland to test the response of Tetropium species to fuscumol, a sex pheromone emitted by male Tetropium fuscum (F.) and male T. cinnamopterum. […] Male T. fuscum emit primarily S-fuscumol so we hypothesized that a synthetic lure of pure S-fuscumol would be more attractive than pure R-fuscumol, and possibly more attractive than racemic fuscumol, especially if R-fuscumol was the major pheromone component of a sympatric sibling species such as T. castaneum. The ultimate objective was to determine if we could improve the efficacy of the lure for use in applications for survey and control of T. fuscum. Conducting the experiment in Poland allowed us to test the response of a different population of T. fuscum from that in Halifax and also to determine the attraction of the pheromone lures to another potentially invasive species, T. castaneum. […]

SMILES | mean catch
CC(C)=CCC/C(C)=C/CCC(C)O (racemic) [racemic fuscumol, (E)-6,10-dimethyl-5,9-undecadien-2-ol] | 1-3 beetles per trap
CC(C)=CCC/C(C)=C/CC[C@H](C)O [S-fuscumol, (2S, 5E)-6,10-dimethyl-5,9-undecadien-2-ol] | 1-3 beetles per trap
